Results are given in words; binding and its absence hold for the method and conditions named.
Molecular target: PETase from Ideonella sakaiensis (IsPETase) (Ideonella sakaiensis)
Assay: SEC; Superdex 75 Increase 10/300 GL, isocratic, 50 mM sodium phosphate (pH 7), 30 mM NaCl, 0.01% (w/v) sodium azide, 1 mL/min; 100 µL of purified IsPETase; protein standards for molecular weight; both purified

By UniProt entry, the sequences of proteins in these tests, tags left out. Residues count along the entry.
UniProt A0A0K8P6T7, residues 28-290: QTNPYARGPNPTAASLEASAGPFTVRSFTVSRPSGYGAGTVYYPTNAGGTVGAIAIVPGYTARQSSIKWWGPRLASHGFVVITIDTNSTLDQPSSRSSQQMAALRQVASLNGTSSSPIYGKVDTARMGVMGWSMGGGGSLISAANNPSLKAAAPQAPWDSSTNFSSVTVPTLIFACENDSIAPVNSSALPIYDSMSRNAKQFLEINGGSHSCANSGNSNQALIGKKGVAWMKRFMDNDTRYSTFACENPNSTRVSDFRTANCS

binding: no binding
Substance: PETase from Ideonella sakaiensis (IsPETase) (from UniProt A0A0K8P6T7 28-290) (enzyme)
